Laboratory results from paper PMC10701626.
No constants are given. Whether binding was seen depends on the method and setting. Binding seen in cells or lysates may run through a third protein. Some entries that bind do so weakly or less than the wild type.

Sequences of proteins named here, by UniProt entry; tags and fusion partners are left off. Residues count along the entry.
UniProt P10244: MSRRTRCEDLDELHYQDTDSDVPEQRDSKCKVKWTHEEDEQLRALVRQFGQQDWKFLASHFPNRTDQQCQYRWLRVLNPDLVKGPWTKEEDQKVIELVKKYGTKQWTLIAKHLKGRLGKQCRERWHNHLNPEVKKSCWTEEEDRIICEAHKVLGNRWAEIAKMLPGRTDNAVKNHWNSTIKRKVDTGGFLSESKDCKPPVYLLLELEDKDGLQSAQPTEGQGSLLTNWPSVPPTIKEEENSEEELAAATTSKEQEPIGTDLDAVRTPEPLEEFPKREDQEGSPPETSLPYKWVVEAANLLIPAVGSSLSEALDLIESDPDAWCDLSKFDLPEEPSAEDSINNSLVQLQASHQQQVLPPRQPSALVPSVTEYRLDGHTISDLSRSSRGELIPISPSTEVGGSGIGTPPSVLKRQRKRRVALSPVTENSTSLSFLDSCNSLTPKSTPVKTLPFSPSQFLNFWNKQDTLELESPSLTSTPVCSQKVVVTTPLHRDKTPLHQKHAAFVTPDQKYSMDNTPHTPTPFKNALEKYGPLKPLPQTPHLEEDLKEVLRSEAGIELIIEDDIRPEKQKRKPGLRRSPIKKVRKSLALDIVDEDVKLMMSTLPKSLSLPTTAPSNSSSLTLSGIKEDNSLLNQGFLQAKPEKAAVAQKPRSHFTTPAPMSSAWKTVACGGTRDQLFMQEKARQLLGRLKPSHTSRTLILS
UniProt Q5TKA1: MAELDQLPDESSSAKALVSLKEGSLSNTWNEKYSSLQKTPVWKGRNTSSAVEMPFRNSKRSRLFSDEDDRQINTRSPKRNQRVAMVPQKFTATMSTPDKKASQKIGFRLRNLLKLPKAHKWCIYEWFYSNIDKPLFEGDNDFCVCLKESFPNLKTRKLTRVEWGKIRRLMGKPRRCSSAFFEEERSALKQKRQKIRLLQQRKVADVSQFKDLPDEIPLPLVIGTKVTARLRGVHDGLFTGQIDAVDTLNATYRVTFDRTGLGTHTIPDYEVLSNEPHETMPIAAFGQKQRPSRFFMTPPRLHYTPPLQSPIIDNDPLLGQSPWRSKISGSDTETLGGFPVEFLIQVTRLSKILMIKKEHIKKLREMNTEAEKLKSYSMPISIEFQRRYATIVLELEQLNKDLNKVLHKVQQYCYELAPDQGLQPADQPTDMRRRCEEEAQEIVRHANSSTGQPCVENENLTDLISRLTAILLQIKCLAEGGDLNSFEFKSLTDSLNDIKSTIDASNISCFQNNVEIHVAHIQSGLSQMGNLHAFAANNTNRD
UniProt Q15648: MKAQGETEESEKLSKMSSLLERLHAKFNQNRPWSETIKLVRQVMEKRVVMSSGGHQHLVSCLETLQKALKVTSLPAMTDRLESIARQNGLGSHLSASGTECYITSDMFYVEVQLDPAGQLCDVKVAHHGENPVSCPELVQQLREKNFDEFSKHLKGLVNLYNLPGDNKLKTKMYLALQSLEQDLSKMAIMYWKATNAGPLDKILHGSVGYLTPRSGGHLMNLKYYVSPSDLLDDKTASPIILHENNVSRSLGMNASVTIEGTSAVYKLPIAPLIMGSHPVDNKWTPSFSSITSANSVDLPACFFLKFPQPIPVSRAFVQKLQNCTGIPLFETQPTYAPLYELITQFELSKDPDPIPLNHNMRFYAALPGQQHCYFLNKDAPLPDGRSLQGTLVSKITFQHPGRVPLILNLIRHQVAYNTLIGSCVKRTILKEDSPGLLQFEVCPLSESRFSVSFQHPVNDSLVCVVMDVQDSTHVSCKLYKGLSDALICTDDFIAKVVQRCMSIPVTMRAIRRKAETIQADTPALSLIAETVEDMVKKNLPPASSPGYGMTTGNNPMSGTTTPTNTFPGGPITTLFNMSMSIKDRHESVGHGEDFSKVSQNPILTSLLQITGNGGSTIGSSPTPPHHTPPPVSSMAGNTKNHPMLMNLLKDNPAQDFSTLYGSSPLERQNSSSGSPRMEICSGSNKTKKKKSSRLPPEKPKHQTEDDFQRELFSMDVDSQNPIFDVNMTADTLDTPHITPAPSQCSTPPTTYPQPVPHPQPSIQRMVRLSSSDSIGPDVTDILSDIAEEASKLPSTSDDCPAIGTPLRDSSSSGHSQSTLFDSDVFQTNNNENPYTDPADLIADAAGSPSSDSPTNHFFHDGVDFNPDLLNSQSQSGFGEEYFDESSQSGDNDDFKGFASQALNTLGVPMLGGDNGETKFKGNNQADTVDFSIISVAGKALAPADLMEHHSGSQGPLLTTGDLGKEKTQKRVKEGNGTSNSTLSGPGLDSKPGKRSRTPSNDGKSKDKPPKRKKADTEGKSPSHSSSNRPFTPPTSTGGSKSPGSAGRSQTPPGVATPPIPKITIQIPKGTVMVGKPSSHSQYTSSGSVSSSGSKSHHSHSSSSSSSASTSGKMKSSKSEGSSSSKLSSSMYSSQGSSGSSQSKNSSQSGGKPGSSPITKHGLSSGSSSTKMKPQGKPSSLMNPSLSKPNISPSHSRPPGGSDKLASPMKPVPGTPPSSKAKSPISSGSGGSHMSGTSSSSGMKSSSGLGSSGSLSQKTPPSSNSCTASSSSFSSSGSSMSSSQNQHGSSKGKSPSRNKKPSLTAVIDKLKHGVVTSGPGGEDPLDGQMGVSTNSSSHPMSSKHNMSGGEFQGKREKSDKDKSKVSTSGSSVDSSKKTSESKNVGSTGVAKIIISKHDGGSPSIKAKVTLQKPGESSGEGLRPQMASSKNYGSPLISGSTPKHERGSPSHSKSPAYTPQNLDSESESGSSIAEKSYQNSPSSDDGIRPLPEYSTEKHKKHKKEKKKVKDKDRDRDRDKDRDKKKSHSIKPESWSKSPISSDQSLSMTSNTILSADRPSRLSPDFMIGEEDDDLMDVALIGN
UniProt Q9Y4K0, residues 26-774: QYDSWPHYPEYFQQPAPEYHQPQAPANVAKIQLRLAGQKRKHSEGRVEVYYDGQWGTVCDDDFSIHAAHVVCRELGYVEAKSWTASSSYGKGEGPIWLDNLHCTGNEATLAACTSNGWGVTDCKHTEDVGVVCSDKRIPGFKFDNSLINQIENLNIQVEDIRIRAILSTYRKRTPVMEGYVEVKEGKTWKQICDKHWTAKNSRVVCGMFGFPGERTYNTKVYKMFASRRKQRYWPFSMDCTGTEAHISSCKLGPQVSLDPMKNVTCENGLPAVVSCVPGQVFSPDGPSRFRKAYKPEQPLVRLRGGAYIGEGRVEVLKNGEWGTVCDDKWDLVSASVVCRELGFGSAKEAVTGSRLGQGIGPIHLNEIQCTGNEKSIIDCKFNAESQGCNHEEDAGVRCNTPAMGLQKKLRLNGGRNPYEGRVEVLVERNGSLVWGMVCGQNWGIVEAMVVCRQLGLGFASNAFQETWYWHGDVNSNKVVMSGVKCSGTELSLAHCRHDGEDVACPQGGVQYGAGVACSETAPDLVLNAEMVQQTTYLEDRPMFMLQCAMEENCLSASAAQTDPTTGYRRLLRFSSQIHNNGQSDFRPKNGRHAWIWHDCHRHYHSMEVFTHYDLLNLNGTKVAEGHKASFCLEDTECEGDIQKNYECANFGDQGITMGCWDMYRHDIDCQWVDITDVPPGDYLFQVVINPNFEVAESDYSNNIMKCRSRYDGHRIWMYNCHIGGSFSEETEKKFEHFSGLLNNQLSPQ

Experiments:
[1] = biological target: B-Myb (Proto-Oncogene Like 2), endogenous (human (endogenous in MDA-MB-231)) (UniProt P10244); assay: co-IP; pulldown of endogenous Lin9, B-Myb or FOXM1 (4 μg antibody, Protein A Dynabeads) from MDA-MB-231 nuclear extract; irrelevant IgG as control
[2] = biological target: Lin9 (MuvB subunit), endogenous (human (endogenous in MDA-MB-231)) (UniProt Q5TKA1); assay: as above
[3] = biological target: MED1 (Mediator complex subunit), endogenous (human (endogenous in MDA-MB-231)) (UniProt Q15648); assay: co-IP; endogenous MED1 pulldown (5 μg anti-MED1, Protein A Dynabeads) from MDA-MB-231 nuclear extract; cells with DMSO, 40 μM PXS for 96 h or 5 μM JQ1 for 24 h (BRD4S-MED1 decreased with JQ1)
[4] = biological target: T1, Forkhead Box M1 (FOXM1), endogenous (human (endogenous in MDA-MB-231)) (UniProt Q08050); assay: co-IP; pulldown of endogenous Lin9, B-Myb or FOXM1 (4 μg antibody, Protein A Dynabeads) from MDA-MB-231 nuclear extract; irrelevant IgG as control
T1 sequence: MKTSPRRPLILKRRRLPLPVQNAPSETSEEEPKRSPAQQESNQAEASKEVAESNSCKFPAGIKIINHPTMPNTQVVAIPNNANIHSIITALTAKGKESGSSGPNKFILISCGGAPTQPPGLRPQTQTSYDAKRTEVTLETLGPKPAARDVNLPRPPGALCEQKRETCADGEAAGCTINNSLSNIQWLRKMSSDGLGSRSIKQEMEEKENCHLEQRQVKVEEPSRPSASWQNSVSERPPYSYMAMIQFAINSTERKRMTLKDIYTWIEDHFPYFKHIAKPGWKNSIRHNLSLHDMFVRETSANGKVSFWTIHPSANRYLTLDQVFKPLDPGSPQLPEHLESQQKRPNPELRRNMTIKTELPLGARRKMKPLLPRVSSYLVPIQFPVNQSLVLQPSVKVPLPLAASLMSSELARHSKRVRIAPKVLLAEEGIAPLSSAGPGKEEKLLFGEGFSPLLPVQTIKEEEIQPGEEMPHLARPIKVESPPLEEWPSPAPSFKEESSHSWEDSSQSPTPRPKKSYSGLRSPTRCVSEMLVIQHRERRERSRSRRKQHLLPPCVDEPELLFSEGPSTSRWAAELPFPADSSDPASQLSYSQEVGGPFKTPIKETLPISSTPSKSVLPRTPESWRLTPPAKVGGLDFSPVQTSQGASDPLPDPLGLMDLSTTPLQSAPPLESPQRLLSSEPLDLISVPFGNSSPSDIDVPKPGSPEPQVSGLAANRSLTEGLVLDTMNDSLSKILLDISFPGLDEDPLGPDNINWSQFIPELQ

Measured: binding

MED1 (Mediator complex subunit), endogenous (from UniProt Q15648 1-1581)
binds: [1] | [2]

Lysyl oxidase-like 2 (LOXL2), endogenous (from UniProt Q9Y4K0 26-774)
binds: all assays above
